These are yes or no findings as the source states them, for the method shown. In cells and extracts the contact can be indirect. Some binding calls cover weakened binding; strength is not graded here. Where a sequence is shown, tags or fusion partners need not be part of it.
Legend:
[1] = biological target: SMN (survival of motor neuron) polypeptide, full-length (human) (UniProt Q16637); assay: co-precipitation with ZPR1 from cell lysates; Flag M2 IP from transfected COS7 cells, SMN immunoblot
[2] = biological target: SMN (survival of motor neuron) polypeptide, full-length (human) (UniProt Q16637); assay: co-immunoprecipitation from transfected COS7 cells (Flag M2 IP, SMN immunoblot)

Amino acid sequences for entries named in this document (tags omitted).
UniProt Q16637: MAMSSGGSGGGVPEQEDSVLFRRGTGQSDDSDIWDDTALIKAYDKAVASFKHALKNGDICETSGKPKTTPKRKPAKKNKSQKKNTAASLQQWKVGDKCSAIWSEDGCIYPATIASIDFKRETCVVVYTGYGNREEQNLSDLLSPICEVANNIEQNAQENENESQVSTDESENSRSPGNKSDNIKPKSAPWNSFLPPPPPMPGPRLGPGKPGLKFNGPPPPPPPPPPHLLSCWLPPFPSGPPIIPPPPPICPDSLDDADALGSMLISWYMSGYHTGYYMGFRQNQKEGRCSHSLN

B1: Flag-ZPR1 (full-length Flag-tagged ZPR1 expressed in transfected COS7 cells) (protein, mouse, UniProt Q62384 1-459, looked up, not shown: small tags and cut ends)
chain: MSASGAVQPGHPGAAVGPSPAAAASPATGPLFRPLSAEDEEQQPTEIESLCMNCYRNGTTRLLLTKIPFFREIIVSSFSCEHCGWNNTEIQSAGRIQDQGVRYTLTVRSQEDMNREVVKTDSATTRIPELDFEIPAFSQKGALTTVEGLISRAISGLEQDQPTRRAVEGAIAERIDEFIGKLKDLKQMASPFTLVIDDPSGNSFVENPHAPQKDNALVITYYDRTPQQAEMLGLQAEAPEEKAEEEDLRNEVLQFNTNCPECNAPAQTNMKLVQIPHFKEVIIMATNCENCGHRTNEVKSGGAVEPLGTRITLHITDPSDMTRDLLKSETCSVEIPELEFELGMAVLGGKFTTLEGLLKDIRELVTKNPFTLGDSSNPDQSEKLQEFSQKLGQIIEGKMKAHFIMNDPAGNSYLQNVYAPEDDPEMKVERYKRTFDQNEELGLNDMKTEGYEAGLAPQR
For B1, the binding [1] was “binds” and the binding [2] was “binds”.

Reference: patent US20020102614A1
